Laboratory results taken from article PMC8586358 (Nature Communications, 2021).
A number of entries come with more than one value. Only these are listed. There may be further records. Values given together appear to be repeats on other runs, samples or individuals.

Chains of the proteins cited; added tags and fusions are not shown. Lines headed by an entry give the natural chain unless they say otherwise; changes in a name come on top.
UniProt P35462, whole entry: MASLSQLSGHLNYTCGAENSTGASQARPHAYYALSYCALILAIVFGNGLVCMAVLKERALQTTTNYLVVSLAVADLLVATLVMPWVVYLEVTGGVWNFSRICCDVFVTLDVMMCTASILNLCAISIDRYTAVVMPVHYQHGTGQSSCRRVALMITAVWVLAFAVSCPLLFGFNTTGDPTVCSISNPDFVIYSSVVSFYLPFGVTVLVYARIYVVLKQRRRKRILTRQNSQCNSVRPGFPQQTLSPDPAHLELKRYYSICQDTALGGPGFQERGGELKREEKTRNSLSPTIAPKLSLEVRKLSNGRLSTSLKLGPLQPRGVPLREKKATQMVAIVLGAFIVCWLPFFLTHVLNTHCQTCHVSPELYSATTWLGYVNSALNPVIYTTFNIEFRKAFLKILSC

Molecular target: D3R (Homo sapiens, UniProt P35462)
Assay: BRET-based Gi1-activation assay in HEK 293T cells
Settings: PD 128907 10^-10 M, vehicle pretreatment

CCCN1CCOC2c3cc(O)ccc3OCC21 (single isomer, unassigned)
Gi1-BRET response (%, norm. to pretreatment): 19.9504% and 4.1%
